# Source: PubChem BioAssay AID2551 (National Center for Advancing Translational Sciences (NCATS), 2010)
# The chains behind the UniProt entries cited, without tags or fusion partners. Where a name states a change or a piece, a line headed by the entry shows the natural chain unless it says otherwise.
# UniProt P51450: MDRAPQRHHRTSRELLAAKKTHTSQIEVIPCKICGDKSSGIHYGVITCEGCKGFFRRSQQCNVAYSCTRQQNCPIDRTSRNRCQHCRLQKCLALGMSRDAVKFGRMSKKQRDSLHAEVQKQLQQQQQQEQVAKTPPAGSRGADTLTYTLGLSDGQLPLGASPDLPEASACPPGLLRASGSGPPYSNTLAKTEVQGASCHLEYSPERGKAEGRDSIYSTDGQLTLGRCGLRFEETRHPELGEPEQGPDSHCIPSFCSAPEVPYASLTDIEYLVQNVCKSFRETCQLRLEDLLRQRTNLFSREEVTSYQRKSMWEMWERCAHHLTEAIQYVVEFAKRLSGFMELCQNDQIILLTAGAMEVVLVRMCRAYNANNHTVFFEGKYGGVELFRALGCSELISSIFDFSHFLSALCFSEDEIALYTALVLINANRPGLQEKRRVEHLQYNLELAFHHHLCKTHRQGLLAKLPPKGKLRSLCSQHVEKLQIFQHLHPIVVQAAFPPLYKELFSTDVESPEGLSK
# Hit rate of the full screen: of about 310,000 compounds, about 17,000 (5.5%) were called active. Inconclusive means that the source gave no clear call. Such entries were picked first, then a sample of the others. The call rests on the fitted dose curve; in most records, active means well fitted inhibition curve with a large enough effect; inconclusive means small, poorly fitted or top-dose-only effect, or effect the other way; inactive means no such curve, though single readings can be large or run the other way. Where the call is inconclusive, the potency comes from a doubtful curve fit.
# Target: Nuclear receptor ROR-gamma (Mus musculus) (UniProt P51450)
# Assay: qHTS for inhibitors of ROR gamma transcriptional activity; further: nearly all actives have a fitted effect of over 60% in size
# Settings: Drosophila S2 Gal4-RORgamma UAS-luciferase reporter, 20 h; activity change, negative = inhibition: at 53.6 µM (top of the series)
# Outline: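 Using a luciferase readout, inhibitors were identified by reduced reporter activity in Drosophila cells coexpressing a copper-inducible Gal4–ROR gamma fusion and UAS-driven Photinus luciferase, incubated 20 hr after 700 uM copper sulfate.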
# On the % scale 0 is the no-effect control and ±100 the full control effect; potency means the concentration at half of the fitted maximal effect.
SMILES,Potency,"activity change, negative = inhibition"
O=C(Nc1ccccc1F)c1ccc([N+](=O)[O-])s1,active: 12.6 µM,–
CCN(CC(=O)NCc1ccc(Cl)cc1)C(=O)c1oc2ccccc2c1C,"inconclusive: 14.1 µM [activator, single point]",–
O=C(CSc1nnc(SCc2ccc(Cl)cc2)s1)N/N=C/c1c[nH]c2ccccc12,active: 11.2 µM,–
COCc1cc(Sc2ccc(Br)cc2)nc(-c2ccccc2)n1,"inconclusive: 22.4 µM [activator, single point]",–
O=C(CSc1nc2ccc(Nc3nc(N4CCOCC4)nc(N4CCOCC4)n3)cc2s1)NCc1ccco1,"inconclusive: 1.78 µM [activator, full curve]",–
O=C(CSCc1ccccc1Cl)NNC(=S)Nc1ccccc1,active: 15.8 µM,–
Cc1coc2c1C(=O)C(=O)c1c-2ccc2c1CCCC2(C)C,inactive,–
CCOc1ccc(S(=O)(=O)NC(C)C(=O)NCc2ccc3c(c2)OCO3)cc1 (stereo unspecified),"inconclusive: 2.51 µM [activator, partial curve]",–
Cc1ccc2nsnc2c1NS(=O)(=O)c1c(C)ccc2nsnc12,–,inactive: -29.7%
CN(C(=O)c1ccc2c(c1)OCO2)C1CCCCC1,"inconclusive: 5.62 µM [activator, full curve, poor fit]",–
O=[N+]([O-])c1ccc(CN2CCN(Cc3c[nH]c4ccccc34)CC2)cc1,–,inactive: -9.59%
CCC(=O)N1CCc2cc(S(=O)(=O)CCC(=O)NCCc3ccc(S(N)(=O)=O)cc3)ccc21,–,inactive: -4.09%
O=C(Nc1cccc(-c2cn3ccccc3n2)c1)C1CC1,"inconclusive: 8.91 µM [activator, partial curve]",–
COc1ccc(C2CCCN2C(=S)Nc2c(C)cccc2C)cc1OC (stereo unspecified),"inconclusive: 11.2 µM [inhibitor, partial curve]",–
COc1ccc(CCN(Cc2ccccn2)C(=S)Nc2ccccc2C)cc1OC,"inconclusive: 22.4 µM [inhibitor, single point]",–
CCOC(=O)C1=C(O)c2ccccc2C(=O)/C1=C\c1ccc(C)cc1,"inconclusive: 25.1 µM [inhibitor, single point]",–
CSCc1cc(N(C)C)nc(SCc2ccc(Cl)cc2Cl)n1,active: 8.91 µM,–
C=CCN=C1CC(C)(C)C(C(=O)OC)C(O)=C1C(=O)CCC (stereo unspecified),–,inactive: 3.11%
O=c1c([N+](=O)[O-])c(N2CCCCCC2)c2ccccc2n1-c1ccccc1,–,inactive: 5.48%
O=C(c1ccc([N+](=O)[O-])o1)N1CCOCC1,active: 15.8 µM,–
Cc1ccc(CC(=O)N2CCN(c3ccc([N+](=O)[O-])cc3)CC2)cc1,"inconclusive: 35.5 µM [activator, single point]",–
COc1ccccc1NC(=O)c1nnn(CC(=O)Nc2cccc(SC)c2)c1N,active: 6.31 µM,–
CCCCC(=O)NC(c1ccccc1)c1ccc2cccnc2c1O (stereo unspecified),active: 1.26 µM,–
COc1cc(NC(=O)CN2c3cccc4cccc(c34)S2(=O)=O)cc(OC)c1OC,–,inactive: -75.2%
CC1CCC(NC(=O)CN2C(=O)c3cccnc3Oc3ccc(Cl)cc32)CC1 (stereo unspecified),–,inactive: 25.7%
CC(CC1C(C#N)=C(N)SC(N)=C1C#N)c1ccccc1 (stereo unspecified),"inconclusive: 17.8 µM [inhibitor, single point]",–

# At a glance, some entries already given:
SMILES,Potency,"activity change, negative = inhibition"
COCc1cc(Sc2ccc(Br)cc2)nc(-c2ccccc2)n1,"inconclusive: 22.4 µM [activator, single point]",–
O=C(CSc1nc2ccc(Nc3nc(N4CCOCC4)nc(N4CCOCC4)n3)cc2s1)NCc1ccco1,"inconclusive: 1.78 µM [activator, full curve]",–
O=C(CSCc1ccccc1Cl)NNC(=S)Nc1ccccc1,active: 15.8 µM,–

# Later entries:

SMILES,Potency,"activity change, negative = inhibition"
COc1ccc(CNC(=O)C2(CC3CC(c4ccccc4)=NO3)CCN(C(=O)C3CCCC3)CC2)cc1 (stereo unspecified),"inconclusive: 8.91 µM [activator, partial curve, poor fit]",–
COc1ncnc2c1NC(=O)CS2,–,inactive: 0.0634% [at 10 µM]
COc1ccc(NC(=O)c2sc3nc(N4CCCC4)c4c(c3c2N)CC(C)(C)OC4)cc1,–,inactive: 20.6%
CNC(=S)N/N=C1\C(=O)c2cccc3cccc1c23,active: 0.501 µM,–
COc1ccc(C2=Nn3c(nnc3-c3ccco3)SC2)cc1OC,–,inactive: 15.3%
O=C(Nn1cnnc1)c1csc2ccccc12,–,inactive: -14.2%
CCN(CC1COc2ccccc2O1)C(=S)Nc1ccc(F)cc1 (stereo unspecified),"inconclusive: 25.1 µM [inhibitor, single point]",–
COc1ccccc1NC(=O)c1oc2ccc(C)cc2c1C,–,inactive: 31%
CCCCC(=O)NC(c1cccs1)c1cc(Cl)c2cccnc2c1O (stereo unspecified),active: 2.51 µM,–
COc1ccc(OC)c(C(=O)Cn2c3[n+](c4ccc(C(F)(F)F)cc42)CCCCC3)c1,"inconclusive: 14.1 µM [activator, single point]",–
COc1cc(S(=O)(=O)NC2CC(C)(C)NC(C)(C)C2)c(OC)cc1Cl,"inconclusive: 0.251 µM [inhibitor, full curve, poor fit]",–
CCOCCOC(=O)C1=C(C)N(C)C(=O)NC1c1cc(Cl)c(O)c(OCC)c1 (stereo unspecified),"inconclusive: 10 µM [activator, single point]",–
COc1ccc(CCNC(=O)C2CCN(S(=O)(=O)c3ccc(SC)cc3)CC2)cc1,"inconclusive: 6.31 µM [activator, single point]",–
COc1ccc(CCNC(=O)C2CCN(c3nn4c(=O)cc(C)nc4s3)CC2)cc1OC,"inconclusive: 0.794 µM [activator, single point]",–
O=S(=O)(c1ccc(F)c2ccccc12)N1CCCCC1,"inconclusive: 35.5 µM [activator, single point]",–
O=C(CNC(=O)c1ccco1)NCC(=O)OCc1cccc(Cl)c1,"inconclusive: 5.62 µM [activator, partial curve]",–
Cc1cc(C(=O)N2CCCC(N3CCN(c4ccc(F)cc4)CC3)C2)c(C)o1 (stereo unspecified),–,inactive: 9.58%
Clc1ccc2c(c1)C(N1CCNCC1)Cc1ccccc1S2 (stereo unspecified),–,inactive: -36.1%
CCCCC(CC)CNC(=O)C(=O)C1C(=O)Nc2ccccc21 (stereo unspecified),"inconclusive: 12.6 µM [inhibitor, single point]",–
N=c1oc2ccccc2cc1C(=O)NC1CCCCCC1,"inconclusive: 5.01 µM [inhibitor, full curve, poor fit]",–
CCOCC(=O)Nc1nc2c(s1)C(=O)CC(C)(C)C2,"inconclusive: 12.6 µM [activator, partial curve, poor fit]",–
COc1cc(OC)c2c(-c3ccccc3)cc(=O)oc2c1C(CCN1CCCCC1)c1ccc(N(C)C)cc1 (stereo unspecified),"inconclusive: 31.6 µM [inhibitor, single point]",–
COc1cc(-c2[nH]ncc2CN2CCN(Cc3cccs3)CC2)cc(OC)c1OC,–,inactive: 36%
CN(Cc1cnn(C)c1)C(=O)c1cc2ccccc2oc1=O,"inconclusive: 14.1 µM [inhibitor, single point]",–
COc1ccc(C(=O)N2CCC3(CC2)CCN(c2ccccc2)CC3)cc1,"inconclusive: 31.6 µM [activator, single point]",–
COc1ccc(/C=N/NC(=O)c2ccccc2OC)cc1COc1ccccc1[N+](=O)[O-],"inconclusive: 35.5 µM [inhibitor, single point]",–

SMILES,Potency,"activity change, negative = inhibition"
CC1CCc2sc(C(=O)OCC(=O)NCc3ccccc3)cc2C1 (stereo unspecified),"inconclusive: 0.0056 µM [inhibitor, full curve, poor fit]",–
CC(OC(=O)c1ccc(NS(=O)(=O)c2cccs2)cc1)C(=O)N(C)C1CCCCC1 (stereo unspecified),"inconclusive: 20 µM [activator, partial curve]",–
O=C(/C=C/c1ccc2c(c1)OCO2)c1cccs1,"inconclusive: 35.5 µM [inhibitor, single point]",–
Clc1ccc(-c2nc3cc(CN4CCCCC4)ccc3o2)cc1,–,inactive: 6.21%
O=C(NC(=S)N1CCOCC1)c1ccc([N+](=O)[O-])cc1,active: 1.41 µM,–
C=C(Cl)COc1ccc2c(CCCC)cc(=O)oc2c1,–,inactive: 12%
COc1cccc(C2NC(c3cccc(OC)c3O)C(C)C(=O)C2C)c1O (stereo unspecified),active: 3.16 µM,–
COC(=O)c1cc(NS(=O)(=O)c2ccc(NC(C)=O)cc2)cc(C(=O)OC)c1,–,inactive: 16.3%
CC(NC(=S)NC1CCCCC1)c1ccc(C(C)(C)C)cc1 (stereo unspecified),active: 1.58 µM,–
COc1ccc(N(Cc2cc3ccccc3[nH]c2=O)S(=O)(=O)c2ccccc2)cc1,–,inactive: 27.5%
O=C1CC(NNc2nc3ccccc3s2)C(=O)N1c1ccc(F)cc1 (stereo unspecified),"inconclusive: 35.5 µM [activator, partial curve]",–
CN1CCN(C(=O)C2CCN(S(=O)(=O)c3ccc(F)cc3)CC2)CC1,"inconclusive: 12.6 µM [inhibitor, partial curve, poor fit]",–
Cc1cccc(Nc2nc(N)c([N+](=O)[O-])c(NCc3ccco3)n2)c1,"inconclusive: 11.2 µM [activator, partial curve]",–
O=C(NCc1ccc(F)cc1)C(=O)Nc1nc(C23CC4CC(CC(C4)C2)C3)cs1,active: 5.62 µM,–
CCc1cccc(C)c1NC(=S)NCc1ccccc1,active: 3.55 µM,–
COc1ccc(-c2cn3ccccc3n2)cc1,active: 6.31 µM,–
CC1CC(C)(C)NC(=S)O1 (stereo unspecified),inactive,–
COc1cccc(C2CCCCN2Cc2nc(-c3ccc(C)o3)oc2C)c1 (stereo unspecified),–,inactive: -18.2%
CCOC(=O)C(CC)/C(C)=N\NC(=O)c1cccc(C)c1 (stereo unspecified),"inconclusive: 17.8 µM [inhibitor, single point]",–
Cc1cccc(NC(=O)C2(C)CC3c4ccccc4C2c2ccccc23)c1C (stereo unspecified),–,inactive: 1.59%
CN(Cc1ccccc1)C(=O)C1CCN(S(=O)(=O)c2cc([N+](=O)[O-])ccc2Cl)CC1,"inconclusive: 35.5 µM [activator, single point]",–
CCOC(=O)CCCNC(=O)CCNC(=O)c1ccc(OC)cc1,"inconclusive: 3.98 µM [activator, single point]",–
O=C(CN1CCN(S(=O)(=O)c2ccc(Br)cc2)CC1)N/N=C/c1cccs1,"inconclusive: 25.1 µM [activator, single point]",–
O=[N+]([O-])c1ccc(O)c(N=Cc2sc3ccccc3c2O)c1,"inconclusive: 1.12 µM [activator, partial curve, poor fit]",–
